Measurements: publication PMC9834402
Results are given in words; binding and its absence hold for the method and conditions named. In cells and extracts the contact can be indirect. Binding can be weak; no strength is given. Tags and fused reporters may be left off the sequences shown.

B1: eukaryotic translation initiation factor eIF(iso)4E fused to the YFP C-terminal moiety (p101-YFC, BiFC) (protein, UniProt O04663 1-198)
chain: MATDDVNEPLPAAAELPATEAEKQPHKLERKWSFWFDNQSKKGAAWGASLRKAYTFDTVEDFWGLHETIFQTSKLTANAEIHLFKAGVEPKWEDPECANGGKWTWVVTANRKEALDKGWLETLMALIGEQFDEADEICGVVASVRPQSKQDKLSLWTRTKSNEAVLMGIGKKWKEILDVTDKITFNNHDDSRRSRFTV
B2: METHYL-CPG-BINDING DOMAIN PROTEIN 5 (MBD5) fused to the YFP C-terminal moiety (p101-YFC, BiFC) (protein, UniProt Q9SNC0 1-182)
chain: MSNGTDQAQPPPENPATPVDSKSRKRATPGDDNWLPPDWRTEIRVRTSGTKAGTVDKFYYEPITGRKFRSKNEVLYYLEHGTPKKKSVKTAENGDSHSEHSEGRGSARRQTKSNKKVTEPPPKPLNFDFLNVPEKVTWTGINGSEEAWLPFIGDYKIQESVSQDWDRVFTLVTSQNAGKTMF

How the values were obtained:
[1] = biological target: TuMV VPg fused to the YFP N-terminal moiety (p101-YFN, BiFC) (turnip mosaic virus, isolate YC5); experiment: split reporter; BiFC with split YFP in agroinfiltrated N. benthamiana leaves; TuMV proteins with the YFP N-terminal moiety, host proteins with the YFP C-terminal moiety; confocal microscopy after 48 h
[2] = biological target: TuMV CI fused to the YFP N-terminal moiety (p101-YFN, BiFC) (turnip mosaic virus, isolate YC5); experiment: as above

| Binder | binding [1] | binding [2] |
| --- | --- | --- |
| B1 | binds |  |
| B2 | binds | binds |
